Source: PubChem BioAssay AID504467 (National Center for Advancing Translational Sciences (NCATS), 2011)
Among all 330,000 compounds or so, about 7,700 (2.3%) were called active. This list was built around the results that the source calls inconclusive (neither active nor inactive); the mix of calls is not that of the screen. Calls follow the shape of the dose curve; as a rule, active = well fitted inhibition curve with a large enough effect; inconclusive = small, poorly fitted or top-dose-only effect, or effect the other way; inactive = flat fitted curve, though single readings scatter. Potencies beside an inconclusive call are fits to weak or partial responses and may not hold up.

assay: qHTS screen for small molecules that inhibit ELG1-dependent DNA repair in human embryonic kidney (HEK293T) cells expressing luciferase-tagged ELG1; conditions: HEK293T ELG1-luciferase reporter, luminescence, 16 h, DNA damage induced by 5-fluorouridine; series mostly up to 46.1 µM; also: nearly all actives have a fitted effect of over 55% in size
In short: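 HEK293T cells expressing luciferase-tagged ELG1 (2,000/well) received 5-Fluorouridine plus compound or DMSO for 16 hr at 37 °C. Luciferase was read by ONE-Glo luminescence after 30 min at room temperature.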
Potency is read from the fitted curve at half-maximal effect.

SMILES | Potency
O=C(NCCc1ccccc1)c1ccc(=O)oc1 | inactive
O=C(Nc1ccccc1[N+](=O)[O-])C1COc2ccccc2O1 (stereo not drawn) | inconclusive: 20.6 µM [activator, partial curve]
COC(=O)C1=C(C(=O)OC)[C@@H]2N(Cc3ccccc3)c3ccccc3[C@@]23C[C@@H](C(=O)OC)N(C(=O)CC(C)C)C3=N1 | inconclusive: 9.2 µM [inhibitor, partial curve]
COc1ccccc1OCc1nc2ccccc2s1 | inconclusive: 0.92 µM [activator, partial curve]
O=[N+]([O-])c1cc(/C=N/N/C(=N/c2ccccn2)c2ccccn2)ccc1O | inconclusive: 20.6 µM [activator, single point]
N#Cc1cccc(NC(=O)CC2CCCCC2)c1 | inconclusive: 20.6 µM [activator, single point]
CCOc1cc(/C=N/N=C2/NC(=O)C(CC(=O)O)S2)ccc1OCc1ccccc1Cl (stereo not drawn) | inconclusive: 25.9 µM [inhibitor, single point]
Cc1[nH]nc(Nc2ccc(Br)cc2)c1[N+](=O)[O-] | inconclusive: 2.31 µM [activator, full curve]
CCOC(=O)C1Nc2ccc(C(=O)O)cc2C2C=CCC12 (stereo not drawn) | inactive
CCc1ccc2oc(-c3ccc(NC(C)=O)cc3)nc2c1 | inconclusive: 1.46 µM [activator, full curve]
Cc1ccc(/C=C/C(=O)Nc2nccs2)o1 | inconclusive: 6.51 µM [activator, partial curve]
NNC(=O)CN1C(=O)Nc2ccc(Br)cc2C1c1ccccc1 (stereo not drawn) | inconclusive: 0.651 µM [activator, single point]
N#Cc1cc2ccccc2nc1SCC(=O)Nc1ccc(S(=O)(=O)N2CCCC2)cc1 | inconclusive: 11.6 µM [inhibitor, partial curve]
O=C(CNS(=O)(=O)c1cccc(F)c1)OCC(=O)N1CCCC1=O | inactive
O=C(c1ccccc1)c1ccc(Cn2cc(-c3ccccc3)nn2)cc1 | inconclusive: 25.9 µM [activator, partial curve]
CN(CC(=O)Nc1ccc(Cl)c(C(F)(F)F)c1)C(=O)c1ccc2c(c1)NC(=O)CS2 | inconclusive: 29.1 µM [inhibitor, single point]
C=CCOC(=O)C1=C[C@H](c2coc3ccccc3c2=O)C[C@H](OCc2ccc(CO)cc2)O1 | active: 8.2 µM
Cc1cccc(Cn2nc(C(C)(C)C)cc2C(=O)N2CCOCC2)c1 | inactive
NC(=O)CC(NC(=O)c1ccc(Br)cc1)c1ccc(N2CCN(c3ccc(F)cc3)CC2)c([N+](=O)[O-])c1 (stereo not drawn) | inactive
COc1cc(C)ccc1OCc1cc(C(=O)N2CCN(C)C[C@@H]2c2ccccc2)no1 | inconclusive: 18.3 µM [activator, partial curve]
Cc1cc(C)c(NC(=O)CNC(=O)COC(=O)CNC(=O)c2ccc(Cl)cc2Cl)c(C)c1 | inconclusive: 5.17 µM [activator, partial curve]
C/C(=C\C(=O)c1ccccc1)Nc1ccc(N2CCOCC2)cc1 | inconclusive: 20.6 µM [activator, single point]

SMILES | Potency
COc1ccc2nc(-n3c(O)c(C4=c5ccccc5=NC4=O)[nH]c3=S)sc2c1 | inactive
COc1cc(N=Nc2cccc(S(N)(=O)=O)c2)c2ccccc2c1N | inconclusive: 20.6 µM [activator, partial curve]
Cc1nc2ccc(-c3nc4ccc(N)cc4[nH]3)cc2[nH]1 | inconclusive: 20.6 µM [activator, partial curve]
COc1ccc(NCc2ccc3c(c2)OCO3)cc1Cl | inconclusive: 20.6 µM [activator, partial curve]
CC1CCCC(NC(=O)COC(=O)c2ccc3ccccc3n2)C1C (stereo not drawn) | inconclusive: 18.4 µM [activator, partial curve, poor fit]
c1csc(C2=Nn3c(nnc3-c3ccncc3)SC2)c1 | active: 1.12 µM
O=C(Nc1nnc(Cc2ccc([N+](=O)[O-])cc2)s1)Nc1ccccc1F | inconclusive: 23.1 µM [activator, single point]
Cc1ccc(C(=O)Nc2ccccc2N2CCOCC2)cc1S(=O)(=O)N1CCOCC1 | inconclusive: 29.1 µM [inhibitor, single point]
COc1cc(C(=O)NC2CCCCC2)ccc1OC1CCN(C(C)=O)CC1 | inconclusive: 15.8 µM [activator, partial curve, poor fit]
O=C(CSc1nnc(-c2cccs2)o1)c1cccs1 | inconclusive: 5.8 µM [activator, single point]
Cn1c(N2CCOCC2)nc2c1c(=O)n(Cc1ccc(Cl)c(Cl)c1)c(=O)n2C | inconclusive: 35.5 µM [inhibitor, single point]
NC(=O)C1CCN(C(=O)COc2ccc3ccc(=O)oc3c2)CC1 | inactive
CCn1c(=O)n(CC)c2cc(NC(=O)c3ccccc3Cl)ccc21 | inconclusive: 13 µM [activator, partial curve]
CC(=O)Nc1ccc(NC(=O)C(C)OC(=O)C2(c3ccccc3F)CCCC2)cc1 (stereo not drawn) | inactive
CC(=O)c1cccc(NCC(=O)N2CCN(S(=O)(=O)c3ccccc3)CC2)c1 | inactive
CCOC(=O)Cc1csc(NC(=O)C(NC(=O)C2CCC(C)CC2)C(C)C)n1 (stereo not drawn) | active: 8.2 µM
CCOc1ccc(-c2n[nH]c(C(=O)NN)c2C)cc1 | inconclusive: 18.4 µM [activator, partial curve]
O=C(Nc1ccc2c(c1)OCCO2)c1cc2sccc2n1Cc1ccccc1 | inconclusive: 7.08 µM [activator, partial curve]
CC1(C)CC(N=Cc2c(O)n(Cc3ccc4c(c3)OCO4)c(=O)c3ccccc23)CC(C)(C)N1 | inactive
CCCc1nnc(NC(=O)CCC(=O)O)s1 | inconclusive: 20.6 µM [activator, partial curve, poor fit]
CCOc1ccc(C(=O)COC(=O)c2cccc(-n3cnnn3)c2)cc1 | inconclusive: 14.6 µM [activator, single point]

3 records drawn at random from the list so far:
SMILES | Potency
Cc1nc2ccc(-c3nc4ccc(N)cc4[nH]3)cc2[nH]1 | inconclusive: 20.6 µM [activator, partial curve]
O=C(CSc1nnc(-c2cccs2)o1)c1cccs1 | inconclusive: 5.8 µM [activator, single point]
CCOc1ccc(C(=O)COC(=O)c2cccc(-n3cnnn3)c2)cc1 | inconclusive: 14.6 µM [activator, single point]
